No constants are given. Whether binding was seen depends on the method and setting. Binding seen in cells or lysates may run through a third protein. Each block holds one molecule with its values, some of them ahead of it.
Target: cyclase-associated protein 2 (CAP2), endogenous (human (endogenous in MKN45)) (UniProt P40123)
Experiment: co-IP; endogenous proteins, cell lysates immunoprecipitated with anti-CAP2 or IgG, Western blot

By UniProt entry, the sequences of proteins in these tests, tags left out.
UniProt P40123: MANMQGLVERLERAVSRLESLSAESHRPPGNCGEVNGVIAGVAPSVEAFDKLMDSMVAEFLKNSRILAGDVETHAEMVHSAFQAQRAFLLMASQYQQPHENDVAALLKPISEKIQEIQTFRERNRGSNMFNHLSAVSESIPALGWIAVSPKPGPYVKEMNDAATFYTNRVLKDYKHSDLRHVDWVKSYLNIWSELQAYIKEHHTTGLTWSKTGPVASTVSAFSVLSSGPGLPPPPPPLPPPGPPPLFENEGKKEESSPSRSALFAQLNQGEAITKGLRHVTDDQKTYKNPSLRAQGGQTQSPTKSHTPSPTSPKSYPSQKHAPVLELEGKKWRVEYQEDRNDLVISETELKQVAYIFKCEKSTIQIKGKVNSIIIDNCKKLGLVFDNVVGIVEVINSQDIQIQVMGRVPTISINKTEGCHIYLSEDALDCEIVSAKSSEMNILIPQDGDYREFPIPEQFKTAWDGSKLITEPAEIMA
UniProt P04406: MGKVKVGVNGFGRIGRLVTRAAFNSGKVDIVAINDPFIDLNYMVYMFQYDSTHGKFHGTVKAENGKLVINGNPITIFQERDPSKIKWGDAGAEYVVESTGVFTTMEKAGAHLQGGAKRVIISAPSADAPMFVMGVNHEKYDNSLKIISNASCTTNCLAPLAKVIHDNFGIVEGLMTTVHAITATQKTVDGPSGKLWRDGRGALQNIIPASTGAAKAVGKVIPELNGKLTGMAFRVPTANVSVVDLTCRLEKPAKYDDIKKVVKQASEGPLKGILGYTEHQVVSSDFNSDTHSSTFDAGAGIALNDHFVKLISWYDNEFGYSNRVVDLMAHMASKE
UniProt P06733: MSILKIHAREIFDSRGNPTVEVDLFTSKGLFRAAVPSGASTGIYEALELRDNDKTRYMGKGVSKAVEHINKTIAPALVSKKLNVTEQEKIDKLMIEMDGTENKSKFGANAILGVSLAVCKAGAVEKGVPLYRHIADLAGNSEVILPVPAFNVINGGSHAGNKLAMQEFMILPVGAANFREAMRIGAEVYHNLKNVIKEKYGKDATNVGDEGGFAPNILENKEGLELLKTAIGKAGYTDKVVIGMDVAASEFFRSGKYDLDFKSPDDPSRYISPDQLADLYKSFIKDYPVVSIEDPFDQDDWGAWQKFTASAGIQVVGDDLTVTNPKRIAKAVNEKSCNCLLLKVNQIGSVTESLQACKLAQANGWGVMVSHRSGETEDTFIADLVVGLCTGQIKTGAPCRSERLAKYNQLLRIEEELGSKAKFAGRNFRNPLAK
UniProt P07355: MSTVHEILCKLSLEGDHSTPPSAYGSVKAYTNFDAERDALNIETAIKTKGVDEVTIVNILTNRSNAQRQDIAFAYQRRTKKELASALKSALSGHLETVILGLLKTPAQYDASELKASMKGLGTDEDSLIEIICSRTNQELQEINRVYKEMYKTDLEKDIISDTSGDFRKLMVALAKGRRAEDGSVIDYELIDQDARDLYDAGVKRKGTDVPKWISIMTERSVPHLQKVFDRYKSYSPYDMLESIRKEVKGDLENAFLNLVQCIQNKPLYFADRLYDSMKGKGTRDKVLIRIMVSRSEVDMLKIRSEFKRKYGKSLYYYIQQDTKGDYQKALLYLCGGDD

Molecule: GAPDH, endogenous (from UniProt P04406 1-335)
binding: no binding

Molecule: enolase 1, endogenous (from UniProt P06733 1-434)
binding: no binding

Molecule: ANXA2, endogenous (from UniProt P07355 1-339)
binding: no binding

More lines, now with the values ahead:

binding: no binding
B1: malate dehydrogenase 2, endogenous (protein, UniProt P40926 25-338)
chain: AKVAVLGASGGIGQPLSLLLKNSPLVSRLTLYDIAHTPGVAADLSHIETKAAVKGYLGPEQLPDCLKGCDVVVIPAGVPRKPGMTRDDLFNTNATIVATLTAACAQHCPEAMICVIANPVNSTIPITAEVFKKHGVYNPNKIFGVTTLDIVRANTFVAELKGLDPARVNVPVIGGHAGKTIIPLISQCTPKVDFPQDQLTALTGRIQEAGTEVVKAKAGAGSATLSMAYAGARFVFSLVDAMNGKEGVVECSFVKSQETECTYFSTPLLLGKKGIEKNLGIGKVSSFEEKMISDAIPELKASIKKGEDFVKTLK

binding: no binding
B2: annexin A1, endogenous (protein, UniProt P04083 1-346)
chain: MAMVSEFLKQAWFIENEEQEYVQTVKSSKGGPGSAVSPYPTFNPSSDVAALHKAIMVKGVDEATIIDILTKRNNAQRQQIKAAYLQETGKPLDETLKKALTGHLEEVVLALLKTPAQFDADELRAAMKGLGTDEDTLIEILASRTNKEIRDINRVYREELKRDLAKDITSDTSGDFRNALLSLAKGDRSEDFGVNEDLADSDARALYEAGERRKGTDVNVFNTILTTRSYPQLRRVFQKYTKYSKHDMNKVLDLELKGDIEKCLTAIVKCATSKPAFFAEKLHQAMKGVGTRHKALIRIMVSRSEIDMNDIKAFYQKMYGISLCQAILDETKGDYEKILVALCGGN
